# According to the supplement of paper PMC10032668:
# The chains behind the UniProt entries cited, without tags or fusion partners.
# ATP6V0D1, P61421, UniProt P61421, whole entry: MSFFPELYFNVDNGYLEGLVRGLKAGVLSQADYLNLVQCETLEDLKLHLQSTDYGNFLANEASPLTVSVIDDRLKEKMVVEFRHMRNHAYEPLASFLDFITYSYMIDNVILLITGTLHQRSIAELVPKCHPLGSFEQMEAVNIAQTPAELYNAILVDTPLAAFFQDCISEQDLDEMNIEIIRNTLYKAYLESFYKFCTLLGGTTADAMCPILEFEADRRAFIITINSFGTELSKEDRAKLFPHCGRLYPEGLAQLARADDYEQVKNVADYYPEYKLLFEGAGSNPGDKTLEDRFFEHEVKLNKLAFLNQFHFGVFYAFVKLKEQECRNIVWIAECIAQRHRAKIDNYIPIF
# FLNB, O75369, UniProt O75369, whole entry: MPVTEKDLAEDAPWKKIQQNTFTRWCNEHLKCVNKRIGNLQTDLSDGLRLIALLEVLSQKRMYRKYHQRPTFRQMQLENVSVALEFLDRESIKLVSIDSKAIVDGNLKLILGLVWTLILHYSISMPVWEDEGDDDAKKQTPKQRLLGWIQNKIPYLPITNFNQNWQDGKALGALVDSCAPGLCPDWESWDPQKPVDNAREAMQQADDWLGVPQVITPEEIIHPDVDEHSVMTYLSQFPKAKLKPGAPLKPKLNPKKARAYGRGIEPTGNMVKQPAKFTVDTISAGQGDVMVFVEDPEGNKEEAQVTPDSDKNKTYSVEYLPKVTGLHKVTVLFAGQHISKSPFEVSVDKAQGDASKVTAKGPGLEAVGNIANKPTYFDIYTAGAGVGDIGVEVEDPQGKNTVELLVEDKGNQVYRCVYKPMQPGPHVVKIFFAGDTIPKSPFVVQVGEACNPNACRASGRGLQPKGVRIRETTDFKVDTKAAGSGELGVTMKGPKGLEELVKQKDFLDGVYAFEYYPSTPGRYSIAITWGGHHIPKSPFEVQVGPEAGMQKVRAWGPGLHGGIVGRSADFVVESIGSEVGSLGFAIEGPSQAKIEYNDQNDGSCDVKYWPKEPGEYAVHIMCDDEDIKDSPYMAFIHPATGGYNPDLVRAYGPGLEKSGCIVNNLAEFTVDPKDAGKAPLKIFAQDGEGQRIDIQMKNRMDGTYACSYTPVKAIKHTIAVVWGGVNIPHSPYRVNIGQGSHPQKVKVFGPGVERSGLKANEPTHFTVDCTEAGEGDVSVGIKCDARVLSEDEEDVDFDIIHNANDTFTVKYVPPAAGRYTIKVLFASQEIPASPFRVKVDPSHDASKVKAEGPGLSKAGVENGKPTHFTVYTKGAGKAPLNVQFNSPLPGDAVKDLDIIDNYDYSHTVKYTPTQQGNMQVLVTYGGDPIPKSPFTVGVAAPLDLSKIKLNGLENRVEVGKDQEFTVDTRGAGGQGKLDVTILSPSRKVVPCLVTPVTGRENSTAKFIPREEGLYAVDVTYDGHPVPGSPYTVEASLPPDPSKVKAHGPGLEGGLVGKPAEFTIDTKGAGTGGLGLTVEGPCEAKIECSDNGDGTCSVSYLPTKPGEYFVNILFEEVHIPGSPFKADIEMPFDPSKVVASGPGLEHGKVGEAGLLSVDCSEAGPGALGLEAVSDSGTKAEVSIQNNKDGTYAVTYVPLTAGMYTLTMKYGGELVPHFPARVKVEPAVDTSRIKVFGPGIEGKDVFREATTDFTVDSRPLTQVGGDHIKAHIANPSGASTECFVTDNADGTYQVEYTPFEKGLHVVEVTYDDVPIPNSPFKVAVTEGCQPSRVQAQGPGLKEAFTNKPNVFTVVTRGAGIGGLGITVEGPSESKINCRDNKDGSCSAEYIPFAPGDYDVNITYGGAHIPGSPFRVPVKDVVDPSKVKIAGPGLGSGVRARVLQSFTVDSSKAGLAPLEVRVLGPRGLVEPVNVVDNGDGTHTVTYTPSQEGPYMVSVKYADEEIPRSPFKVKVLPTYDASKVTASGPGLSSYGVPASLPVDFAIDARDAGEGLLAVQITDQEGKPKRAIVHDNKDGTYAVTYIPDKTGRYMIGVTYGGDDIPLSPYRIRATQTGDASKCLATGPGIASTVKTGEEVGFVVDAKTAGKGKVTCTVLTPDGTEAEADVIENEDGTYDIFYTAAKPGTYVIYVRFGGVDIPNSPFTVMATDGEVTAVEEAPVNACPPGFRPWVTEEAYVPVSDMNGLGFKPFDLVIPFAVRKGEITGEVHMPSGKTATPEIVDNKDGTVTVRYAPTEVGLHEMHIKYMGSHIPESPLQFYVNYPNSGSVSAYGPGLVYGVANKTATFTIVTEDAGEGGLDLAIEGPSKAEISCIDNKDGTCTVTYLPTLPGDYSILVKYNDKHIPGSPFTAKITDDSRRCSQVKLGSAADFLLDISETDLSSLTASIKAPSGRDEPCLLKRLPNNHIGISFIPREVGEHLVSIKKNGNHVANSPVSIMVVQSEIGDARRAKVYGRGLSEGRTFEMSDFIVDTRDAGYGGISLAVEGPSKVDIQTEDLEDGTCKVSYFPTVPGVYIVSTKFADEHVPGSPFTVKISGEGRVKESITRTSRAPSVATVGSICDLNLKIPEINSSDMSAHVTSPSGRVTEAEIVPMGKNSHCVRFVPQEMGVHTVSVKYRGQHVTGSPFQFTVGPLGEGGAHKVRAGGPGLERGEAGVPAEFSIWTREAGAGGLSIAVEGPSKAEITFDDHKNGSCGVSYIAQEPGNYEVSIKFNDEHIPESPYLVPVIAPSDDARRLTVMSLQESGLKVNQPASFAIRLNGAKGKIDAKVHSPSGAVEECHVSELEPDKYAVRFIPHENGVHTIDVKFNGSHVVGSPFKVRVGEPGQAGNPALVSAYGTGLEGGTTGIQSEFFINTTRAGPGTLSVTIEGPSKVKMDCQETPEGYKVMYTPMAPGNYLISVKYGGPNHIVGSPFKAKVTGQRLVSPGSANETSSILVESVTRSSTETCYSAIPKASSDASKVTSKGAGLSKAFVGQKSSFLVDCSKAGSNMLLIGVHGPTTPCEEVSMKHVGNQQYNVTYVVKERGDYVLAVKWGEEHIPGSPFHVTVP
# EP400, Q96L91, UniProt Q96L91, whole entry: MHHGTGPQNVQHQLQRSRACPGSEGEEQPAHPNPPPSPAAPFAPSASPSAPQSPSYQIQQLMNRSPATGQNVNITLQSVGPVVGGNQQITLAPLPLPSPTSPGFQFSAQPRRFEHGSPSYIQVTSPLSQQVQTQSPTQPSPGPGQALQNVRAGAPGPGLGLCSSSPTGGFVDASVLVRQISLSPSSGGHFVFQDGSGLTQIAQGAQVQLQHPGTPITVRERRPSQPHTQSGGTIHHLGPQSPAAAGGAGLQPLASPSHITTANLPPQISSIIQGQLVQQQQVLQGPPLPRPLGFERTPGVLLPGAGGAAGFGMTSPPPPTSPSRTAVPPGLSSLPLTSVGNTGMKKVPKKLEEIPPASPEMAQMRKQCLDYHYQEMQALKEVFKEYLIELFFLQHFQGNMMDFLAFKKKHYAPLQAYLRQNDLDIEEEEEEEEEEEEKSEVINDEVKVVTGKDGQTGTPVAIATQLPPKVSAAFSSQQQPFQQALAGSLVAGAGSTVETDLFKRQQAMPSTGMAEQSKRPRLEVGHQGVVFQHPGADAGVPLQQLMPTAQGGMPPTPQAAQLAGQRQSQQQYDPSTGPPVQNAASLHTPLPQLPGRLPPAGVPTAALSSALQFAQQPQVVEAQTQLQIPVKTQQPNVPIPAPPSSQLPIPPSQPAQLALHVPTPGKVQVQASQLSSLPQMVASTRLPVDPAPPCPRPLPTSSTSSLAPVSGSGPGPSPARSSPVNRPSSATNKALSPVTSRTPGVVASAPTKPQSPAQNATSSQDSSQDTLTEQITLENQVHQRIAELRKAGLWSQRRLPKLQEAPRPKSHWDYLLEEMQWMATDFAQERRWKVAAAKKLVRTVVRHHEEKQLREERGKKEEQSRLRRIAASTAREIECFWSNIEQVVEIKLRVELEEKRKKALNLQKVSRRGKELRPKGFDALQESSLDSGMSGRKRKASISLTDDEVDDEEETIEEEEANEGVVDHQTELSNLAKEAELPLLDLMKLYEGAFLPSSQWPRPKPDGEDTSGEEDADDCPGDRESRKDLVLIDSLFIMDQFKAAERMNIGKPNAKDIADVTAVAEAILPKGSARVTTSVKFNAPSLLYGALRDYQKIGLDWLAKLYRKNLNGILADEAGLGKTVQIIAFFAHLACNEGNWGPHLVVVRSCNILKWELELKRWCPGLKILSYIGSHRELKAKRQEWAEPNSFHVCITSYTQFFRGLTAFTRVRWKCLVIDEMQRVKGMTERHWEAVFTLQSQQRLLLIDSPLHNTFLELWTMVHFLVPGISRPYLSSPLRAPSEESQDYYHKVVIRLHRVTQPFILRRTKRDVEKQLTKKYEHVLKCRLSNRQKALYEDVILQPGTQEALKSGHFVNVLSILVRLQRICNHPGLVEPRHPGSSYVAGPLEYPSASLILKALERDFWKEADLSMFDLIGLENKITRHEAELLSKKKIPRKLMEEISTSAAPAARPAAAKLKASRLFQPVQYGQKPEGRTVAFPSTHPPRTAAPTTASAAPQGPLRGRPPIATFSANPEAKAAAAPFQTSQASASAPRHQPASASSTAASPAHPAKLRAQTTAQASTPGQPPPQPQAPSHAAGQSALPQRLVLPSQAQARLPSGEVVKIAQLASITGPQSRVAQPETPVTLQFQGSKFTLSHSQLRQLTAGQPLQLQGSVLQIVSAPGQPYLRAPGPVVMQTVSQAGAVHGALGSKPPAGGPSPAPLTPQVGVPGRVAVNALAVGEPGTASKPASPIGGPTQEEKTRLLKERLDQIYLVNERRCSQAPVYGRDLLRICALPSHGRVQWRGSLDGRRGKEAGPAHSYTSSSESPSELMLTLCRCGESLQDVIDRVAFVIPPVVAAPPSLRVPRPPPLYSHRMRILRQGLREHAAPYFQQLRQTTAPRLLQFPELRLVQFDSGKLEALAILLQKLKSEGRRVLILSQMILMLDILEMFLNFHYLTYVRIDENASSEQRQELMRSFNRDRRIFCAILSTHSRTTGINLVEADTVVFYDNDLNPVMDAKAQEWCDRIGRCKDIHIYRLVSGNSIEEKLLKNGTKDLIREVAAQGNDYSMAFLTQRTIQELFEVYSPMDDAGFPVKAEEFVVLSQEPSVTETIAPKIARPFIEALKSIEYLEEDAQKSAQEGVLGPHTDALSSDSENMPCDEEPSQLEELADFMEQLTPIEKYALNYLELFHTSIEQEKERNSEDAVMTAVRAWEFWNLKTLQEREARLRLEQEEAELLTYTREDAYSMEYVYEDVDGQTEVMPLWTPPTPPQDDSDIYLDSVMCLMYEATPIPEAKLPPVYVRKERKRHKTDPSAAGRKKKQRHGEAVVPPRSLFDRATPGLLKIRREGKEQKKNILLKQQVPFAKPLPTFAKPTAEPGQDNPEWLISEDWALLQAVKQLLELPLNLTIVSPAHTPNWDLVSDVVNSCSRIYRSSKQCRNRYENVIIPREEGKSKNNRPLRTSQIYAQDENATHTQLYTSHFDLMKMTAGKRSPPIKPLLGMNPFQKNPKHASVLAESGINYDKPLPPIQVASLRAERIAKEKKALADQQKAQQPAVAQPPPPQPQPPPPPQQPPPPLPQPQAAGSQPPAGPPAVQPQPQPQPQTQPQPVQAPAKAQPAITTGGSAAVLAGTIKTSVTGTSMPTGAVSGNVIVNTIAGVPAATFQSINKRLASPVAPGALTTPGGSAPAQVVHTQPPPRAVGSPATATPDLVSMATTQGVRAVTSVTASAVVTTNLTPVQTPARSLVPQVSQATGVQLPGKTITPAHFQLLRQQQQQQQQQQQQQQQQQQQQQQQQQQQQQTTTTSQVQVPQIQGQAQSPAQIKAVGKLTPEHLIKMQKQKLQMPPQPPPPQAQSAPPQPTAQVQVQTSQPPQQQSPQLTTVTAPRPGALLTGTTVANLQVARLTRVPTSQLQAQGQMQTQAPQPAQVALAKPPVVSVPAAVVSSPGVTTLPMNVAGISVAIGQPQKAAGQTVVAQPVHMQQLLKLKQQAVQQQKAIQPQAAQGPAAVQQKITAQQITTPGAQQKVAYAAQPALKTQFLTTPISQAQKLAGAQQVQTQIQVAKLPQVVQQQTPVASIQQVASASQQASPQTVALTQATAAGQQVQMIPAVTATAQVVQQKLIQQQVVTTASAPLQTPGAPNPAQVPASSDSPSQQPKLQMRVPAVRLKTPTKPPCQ
# MECP2, P51608, UniProt P51608, whole entry: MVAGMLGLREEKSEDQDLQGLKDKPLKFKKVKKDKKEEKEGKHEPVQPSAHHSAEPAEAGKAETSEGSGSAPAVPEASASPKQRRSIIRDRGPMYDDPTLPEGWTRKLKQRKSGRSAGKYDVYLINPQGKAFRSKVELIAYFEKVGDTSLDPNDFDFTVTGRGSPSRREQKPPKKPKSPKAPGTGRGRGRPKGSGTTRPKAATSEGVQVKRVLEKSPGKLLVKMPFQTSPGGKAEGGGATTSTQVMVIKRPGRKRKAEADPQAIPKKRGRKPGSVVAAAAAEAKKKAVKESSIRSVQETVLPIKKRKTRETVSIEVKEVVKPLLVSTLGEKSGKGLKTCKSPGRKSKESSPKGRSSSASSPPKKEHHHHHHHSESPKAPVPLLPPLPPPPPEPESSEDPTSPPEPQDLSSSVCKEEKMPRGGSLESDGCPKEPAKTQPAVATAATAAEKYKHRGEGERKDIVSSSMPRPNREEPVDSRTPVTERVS
# The list shows a part of the results. Only hits are listed; about a third recur on repeated control peptides.
# Columns and labels:
# Experiment in all cases: PRISMA enrichment of interactor (LFQ) in peptide spot vs all other peptide spots (log2 fold change); higher = stronger / more specific binding of the interactor to the peptide
# ALG6, Q9Y672 = target: ALG6, Q9Y672
# Protocol: (§1)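 PRISMA: 15-aa overlapping tiles (offset 8 aa) of 60 microproteins, plus SOS1/GLUT1 control peptides, were spot-synthesized on cellulose membranes in triplicate. Membranes were incubated with benzonase-treated HEK293T lysate, and bound proteins were identified by LC-MS/MS with LFQ. Enrichment is the log2 fold change of each protein in one spot versus all other spots. Only interactors passing the significance cutoff are listed.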
# C1QBP, Q07021 = target: C1QBP, Q07021
# Protocol: as §1
# EAPP, Q56P03 = target: EAPP, Q56P03
# Protocol: as §1
# FYTTD1, Q96QD9 = target: FYTTD1, Q96QD9
# Protocol: as §1
# HSD17B12, Q53GQ0 = target: HSD17B12, Q53GQ0
# Protocol: as §1
# HSPA4, P34932 = target: HSPA4, P34932
# Protocol: as §1
# LRFN3, Q9BTN0 = target: LRFN3, Q9BTN0
# Protocol: as §1
# MRPL14, Q6P1L8 = target: MRPL14, Q6P1L8
# Protocol: as §1
# MRPL27, Q9P0M9 = target: MRPL27, Q9P0M9
# Protocol: as §1
# MYCBP2, O75592 = target: MYCBP2, O75592
# Protocol: as §1
# P4HB, P07237 = target: P4HB, P07237
# Protocol: as §1
# PDCD6IP, Q8WUM4 = target: PDCD6IP, Q8WUM4
# Protocol: as §1
# SPTY2D1, Q68D10 = target: SPTY2D1, Q68D10
# Protocol: as §1
# TEX264, Q9Y6I9 = target: TEX264, Q9Y6I9
# Protocol: as §1
# VARS, P26640 = target: VARS, P26640
# Protocol: as §1
# ZNF24, P17028 = target: ZNF24, P17028
# Protocol: as §1
# ALKBH2, Q6NS38 = target: ALKBH2, Q6NS38
# Protocol: as §1
# ATP6V0D1, P61421 = target: ATP6V0D1, P61421
# Protocol: as §1
# DDX49, Q9Y6V7 = target: DDX49, Q9Y6V7
# Protocol: as §1
# FLNB, O75369 = target: FLNB, O75369
# Protocol: as §1
# OPA1, O60313 = target: OPA1, O60313
# Protocol: as §1
# ORC4, O43929 = target: ORC4, O43929
# Protocol: as §1
# SCP2, P22307 = target: SCP2, P22307
# Protocol: as §1
# TSR1, Q2NL82 = target: TSR1, Q2NL82
# Protocol: as §1
# CRTAP, O75718 = target: CRTAP, O75718
# Protocol: as §1
# CTBP1, Q13363 = target: CTBP1, Q13363
# Protocol: as §1
# EP400, Q96L91 = target: EP400, Q96L91
# Protocol: as §1
# FARSA, Q9Y285 = target: FARSA, Q9Y285
# Protocol: as §1
# GPBP1, Q86WP2 = target: GPBP1, Q86WP2
# Protocol: as §1
# MECP2, P51608 = target: MECP2, P51608
# Protocol: as §1
# NUP54, Q7Z3B4 = target: NUP54, Q7Z3B4
# Protocol: as §1
# SFSWAP, Q12872 = target: SFSWAP, Q12872
# Protocol: as §1
# ATXN10, Q9UBB4 = target: ATXN10, Q9UBB4
# Protocol: as §1
# COPS2, P61201 = target: COPS2, P61201
# Protocol: as §1
# COPS7B, Q9H9Q2 = target: COPS7B, Q9H9Q2
# Protocol: as §1
# CSNK2B, P67870 = target: CSNK2B, P67870
# Protocol: as §1
# ESF1, Q9H501 = target: ESF1, Q9H501
# Protocol: as §1
# GPAA1, O43292 = target: GPAA1, O43292
# Protocol: as §1
# GTF2E2, P29084 = target: GTF2E2, P29084
# Protocol: as §1
# GTPBP1, O00178 = target: GTPBP1, O00178
# Protocol: as §1
# MAEA, Q7L5Y9 = target: MAEA, Q7L5Y9
# Protocol: as §1
# MYO1D, O94832 = target: MYO1D, O94832
# Protocol: as §1
# PPP1CB, P62140 = target: PPP1CB, P62140
# Protocol: as §1
# SNX2, O60749 = target: SNX2, O60749
# Protocol: as §1
# TAF15, Q92804 = target: TAF15, Q92804
# Protocol: as §1
binder,measurement,setting,value
LGAQARPPRRAPGGR [TUG1],PRISMA enrichment of interactor (log2),"ALG6, Q9Y672",4.27
same,PRISMA enrichment of interactor (log2),"C1QBP, Q07021",6.16
same,PRISMA enrichment of interactor (log2),"EAPP, Q56P03",5.94
same,PRISMA enrichment of interactor (log2),"FYTTD1, Q96QD9",6.65
same,PRISMA enrichment of interactor (log2),"HSD17B12, Q53GQ0",5.15
same,PRISMA enrichment of interactor (log2),"HSPA4, P34932",5.49
same,PRISMA enrichment of interactor (log2),"LRFN3, Q9BTN0",3.8
same,PRISMA enrichment of interactor (log2),"MRPL14, Q6P1L8",4.94
same,PRISMA enrichment of interactor (log2),"MRPL27, Q9P0M9",8.26
same,PRISMA enrichment of interactor (log2),"MYCBP2, O75592",7.67
same,PRISMA enrichment of interactor (log2),"P4HB, P07237",6.18
same,PRISMA enrichment of interactor (log2),"PDCD6IP, Q8WUM4",4.59
same,PRISMA enrichment of interactor (log2),"SPTY2D1, Q68D10",5.28
same,PRISMA enrichment of interactor (log2),"TEX264, Q9Y6I9",5.36
same,PRISMA enrichment of interactor (log2),"VARS, P26640",5.05
same,PRISMA enrichment of interactor (log2),"ZNF24, P17028",5.29
EPGSIFMPLSEPPSD [NAV2-AS2_2],PRISMA enrichment of interactor (log2),"ALKBH2, Q6NS38",4.45
same,PRISMA enrichment of interactor (log2),"ATP6V0D1, P61421",6.14
same,PRISMA enrichment of interactor (log2),"DDX49, Q9Y6V7",5.65
same,PRISMA enrichment of interactor (log2),"FLNB, O75369",4.36
same,PRISMA enrichment of interactor (log2),"OPA1, O60313",5.95
same,PRISMA enrichment of interactor (log2),"ORC4, O43929",5.54
same,PRISMA enrichment of interactor (log2),"SCP2, P22307",5.48
same,PRISMA enrichment of interactor (log2),"TSR1, Q2NL82",5.51
LLGWQANRLRRRYLD [MTLN],PRISMA enrichment of interactor (log2),"ALKBH2, Q6NS38",6.17
same,PRISMA enrichment of interactor (log2),"CRTAP, O75718",4.66
same,PRISMA enrichment of interactor (log2),"CTBP1, Q13363",3.92
same,PRISMA enrichment of interactor (log2),"EP400, Q96L91",5.05
same,PRISMA enrichment of interactor (log2),"FARSA, Q9Y285",4.16
same,PRISMA enrichment of interactor (log2),"GPBP1, Q86WP2",3.91
same,PRISMA enrichment of interactor (log2),"MECP2, P51608",3.99
same,PRISMA enrichment of interactor (log2),"NUP54, Q7Z3B4",4.68
same,PRISMA enrichment of interactor (log2),"SFSWAP, Q12872",6.72
MRFMPLDPTGALGKR [RP11-464C19.3],PRISMA enrichment of interactor (log2),"ALKBH2, Q6NS38",6.88
same,PRISMA enrichment of interactor (log2),"ATXN10, Q9UBB4",5.27
same,PRISMA enrichment of interactor (log2),"COPS2, P61201",5.09
same,PRISMA enrichment of interactor (log2),"COPS7B, Q9H9Q2",6.1
same,PRISMA enrichment of interactor (log2),"CSNK2B, P67870",6.58
same,PRISMA enrichment of interactor (log2),"ESF1, Q9H501",5.47
same,PRISMA enrichment of interactor (log2),"GPAA1, O43292",4.01
same,PRISMA enrichment of interactor (log2),"GTF2E2, P29084",8.23
same,PRISMA enrichment of interactor (log2),"GTPBP1, O00178",6
same,PRISMA enrichment of interactor (log2),"MAEA, Q7L5Y9",3.94
same,PRISMA enrichment of interactor (log2),"MYO1D, O94832",4.67
same,PRISMA enrichment of interactor (log2),"PPP1CB, P62140",4.78
same,PRISMA enrichment of interactor (log2),"SNX2, O60749",7.49
same,PRISMA enrichment of interactor (log2),"TAF15, Q92804",5.52

# Looked up one by one from the entries so far:
binder,measurement,setting,value
LGAQARPPRRAPGGR [TUG1],PRISMA enrichment of interactor (log2),"P4HB, P07237",6.18
same,PRISMA enrichment of interactor (log2),"HSPA4, P34932",5.49
